# In all, about 33,000 sequences were measured (“E-score (-0.5 to 0.5)”: median about -0.0034, highest 2% from about 0.25 on). Some of the results follow.
# Molecular target: T1, Yap3 (UniProt P38749)
# T1 sequence: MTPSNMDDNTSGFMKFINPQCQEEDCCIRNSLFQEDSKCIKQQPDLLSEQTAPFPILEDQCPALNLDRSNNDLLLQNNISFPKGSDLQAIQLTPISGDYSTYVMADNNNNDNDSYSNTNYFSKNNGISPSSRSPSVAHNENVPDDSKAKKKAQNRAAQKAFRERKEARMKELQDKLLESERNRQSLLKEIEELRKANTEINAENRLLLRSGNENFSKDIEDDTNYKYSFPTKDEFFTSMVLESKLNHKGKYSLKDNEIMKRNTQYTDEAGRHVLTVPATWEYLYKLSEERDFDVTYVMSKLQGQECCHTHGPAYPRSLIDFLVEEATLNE
# Test: PBM E-score (8-mer binding enrichment) (E-score (-0.5 to 0.5)); higher = stronger / more preferred TF binding
# Settings: protein concentration: 100 nM; construct: GST-full length
# How it was run: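 PURExpress in vitro transcription/translation supplied GST-tagged yeast transcription factors, either full-length or DNA-binding domain. Applied at about 100-200 nM to universal all-10-mer Agilent arrays double-stranded by primer extension, the bound protein was detected with fluorescent anti-GST. E-scores, modified Wilcoxon-Mann-Whitney statistics, were given by the Universal PBM Analysis Suite to ungapped eight-base words pooled with their reverse complements after masliner normalisation.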
row,Sequence,PBM E-score
1,CGAATCCA,0.102
2,CTATCCAA,-0.113
3,AATAAGGG,0.204
4,AACATCGG,-0.0538
5,TCCCTTCA,-0.0728
6,ACACCCAG,-0.17
7,AGAGAATA,0.208
8,AGTAATTC,0.235
9,AGTCGAGC,-0.206
10,AAACATTG,0.0783
11,CACATCGG,-0.141
12,AGCATCTA,0.0425
13,GGCACCTA,-0.188
14,ATGCTCAG,-0.0117
15,AGCAGAAA,0.152
16,AGAGATGA,-0.0153
17,AGCGCATG,0.0393
18,CATTAGCG,0.12
19,CTCAATAC,0.215
20,GTTCATGA,0.109
21,ACTTTGAC,0.114
22,ATGAAGCA,-0.113
23,TAGTCCCA,-0.0992
24,GATTCCTA,-0.156
25,AACCCAAC,0.0756

# Part of the list above, as tab-separated lines:
row	Sequence	PBM E-score
13	GGCACCTA	-0.188
25	AACCCAAC	0.0756

# (list continues)

row,Sequence,PBM E-score
1,ACTAGAAA,0.0949
2,TACGAGCA,-0.0231
3,GGAGATGA,0.118
4,AAACGAAC,0.132
5,CGCTACCA,-0.15
6,CAACACCA,0.0908
7,GGTGATGA,0.125
8,AACCAGCG,-0.0042
9,AGGGATAC,-0.027
10,GGTCAACA,-0.0162
11,CATTTTGC,0.178
12,CATCAACC,0.203
13,ACAAACAC,0.207
14,CCTTTTCC,-0.0836
15,GTTGCTGA,0.163
16,AGTCGGAT,0.0774
17,CGCTATGA,0.0528
18,ATGCTAGG,0.077
19,CTCGAGAA,0.0481
20,AGTAGTTA,-0.0775
21,GTAAAACA,0.0179
22,GCTGGTAA,-0.0741
23,CGGCATCA,-0.109
24,TATAAAAA,0.265
25,AGAGGTAG,-0.0107

row,Sequence,PBM E-score
1,AAGTCATT,-0.0794
2,CAATGAGC,-0.0466
3,CGGCGTCC,0.0273
4,AGTCGCCC,-0.121
5,ACCGCTAC,-0.181
6,CGAGCCCA,-0.158
7,TGATCCAA,0.0224
8,AAGTACTA,0.18
9,AATGACGT,0.115
10,ATAGCTAT,-0.106
11,CATCCGCG,0.0202
12,ATTGCGTA,0.251
13,AAGTGGCC,-0.137
14,ACAGCTTA,0.159
15,CTTGAAGA,-0.101
16,CGTAATGA,0.241
17,ATAAGGAT,0.147
18,CGAGGGTA,-0.0867
19,TAATATGA,0.297
20,ACTATACA,0.138
21,ACGTGAGC,-0.0957
22,AGACCGTG,-0.0382
23,ATTCGTGG,0.012
24,CTGCGGGA,-0.235
25,GCCTACAC,-0.00141

row,Sequence,PBM E-score
1,GCATCACA,-0.0287
2,GTCTTGCA,0.0925
3,AGCTCGCC,-0.173
4,AATCTACT,0.124
5,GCATCGAA,-0.153
6,GTCTGACA,-0.0436
7,ACGCGTCA,0.122
8,TAGGACGA,-0.0578
9,CCGACCGC,-0.315
10,ACCCAGGG,-0.374
11,TAACATCA,0.0784
12,GAATCCGC,-0.121
13,TAAACTCA,0.0977
14,CGGCGCCG,0.0469
15,CGAGTCAA,-0.133
16,CGACTACG,-0.0871
17,CTGATACA,0.0245
18,CGCAGATC,-0.125
19,AAACTCAT,0.219
20,AGCCACAC,0.128
21,ATACCGTC,0.197
22,CAATTGTG,0.188
23,AAGTCTCC,-0.0848
24,CATGAGCA,-0.106
25,ATGCATGA,0.167

row,Sequence,PBM E-score
1,CTAGACTC,-0.305
2,AAGCCTAA,0.00919
3,GCTACCAC,-0.173
4,CAGCTGTC,0.148
5,AGGTGCAT,-0.105
6,AACACCGA,-0.0814
7,AAGGGGTA,-0.233
8,CGAAACAG,0.0681
9,TGCGTGAA,0.107
10,AGACATGC,-0.183
11,AACTCTCC,-0.14
12,ATGAAGGA,0.0695
13,CTCTTTGA,-0.0682
14,ACCTCGCG,-0.0922
15,GCCACCCA,-0.179
16,ATCAATTG,0.159
17,ACCTACCG,0.00349
18,CGCTGAAG,-0.0508
19,CCGTTGCA,0.00625
20,CAATTGAA,-0.032
21,GTTATGAA,0.172
22,ACGTGCAG,-0.1
23,CTGGATGC,-0.33
24,AACTCCTT,0.0691
25,GAGTCATC,-0.00184

row,Sequence,PBM E-score
1,GGGGATGA,-0.00038
2,ACGACCTG,-0.18
3,CCCACACA,-0.0183
4,TAAGCCGA,0.243
5,AAGTGAGC,0.00127
6,ACTACCTC,0.00605
7,CAAACAAC,0.251
8,ATAAACCC,0.14
9,ACTTCTGA,-0.0121
10,GTAAGCTA,0.215
11,ACTTCGTA,-0.0349
12,AGCGTCAG,-0.119
13,AAGAATCG,0.217
14,GACAACGC,0.00149
15,CCTGATGA,-0.00067
16,ACTTACCC,0.103
17,AGCGGGCA,-0.3
18,ATTTTGAG,0.157
19,CGGTCACC,-0.364
20,ACAGTTTG,-0.00034
21,CAGTTGCG,0.094
22,AAGCTAAA,0.129
23,CGAGCCAG,-0.035
24,CCGTACAA,0.0479
25,ATAACGTG,0.161

row,Sequence,PBM E-score
1,ACACTGGT,0.11
2,AATCCACC,0.153
3,ACTGTACG,0.0817
4,CAAGCCAG,-0.0253
5,AGCCTATC,0.00597
6,CAAATGGA,-0.0854
7,ATGTCGCC,0.02
8,AAAGTTAG,0.206
9,CATACCAG,-0.0485
10,GCTGGTTA,0.0998
11,ATATGAAG,0.0557
12,CACTAGCC,-0.0154
13,ATGTGCAA,0.059
14,CACAAAAA,0.193
15,AACCGCCT,-0.026
16,AGCAGGTG,0.184
17,ACGATTAT,0.19
18,TAAGTAAA,0.0756
19,AGGAAATG,0.0772
20,AACAGCTC,-0.134
21,GCGCCCCA,-0.178
22,GACTGACA,0.105
23,AAATCCGT,0.132
24,GACTCTCC,-0.239
25,CAAAGAAA,0.129

row,Sequence,PBM E-score
1,TTCCGGAA,-0.0427
2,CTACCGGC,-0.147
3,ACCTTGCG,0.128
4,AAGCTACT,0.0267
5,AGAGTCCA,-0.0323
6,ATTCGGTG,0.09
7,GGGAGTCA,-0.198
8,ATTATCGG,-0.0264
9,ACCCCGGG,-0.238
10,CGTGCTCC,-0.117
11,GCTCCATA,-0.0182
12,ATAACCAT,0.0623
13,CTGCAAGA,0.0368
14,ACCCCATG,-0.0576
15,GACAGAAC,0.0937
16,AGCGCTAT,0.0919
17,AAGACCGA,0.00128
18,CAGGTTTC,0.0712
19,AGAACTCG,-0.00218
20,CCGGGTTA,-0.234
21,CGTTCTGA,-0.106
22,GCAGTTCA,-0.0245
23,CGTTACTA,0.149
24,CTCTCACA,0.109
25,CCGGAGGC,-0.307

row,Sequence,PBM E-score
1,AGTCACGA,-0.176
2,ATTCCTAC,0.158
3,AAGTCAAT,0.115
4,ATTATCCG,0.166
5,GTGTGCCA,-0.0465
6,AAGCGCTC,-0.0695
7,CTGTGAGA,-0.0851
8,AGAGCAAC,-0.177
9,GATGACGC,0.0228
10,AGTATTTG,0.0477
11,CGGCAATC,-0.104
12,CGCATGGC,-0.0735
13,GAAAGACA,0.217
14,GGTCGGGA,-0.135
15,ACATACCA,-0.119
16,CTCATTCC,0.139
17,AACGTTAT,0.164
18,ATTGCGGG,0.0122
19,ACGTAACT,0.169

# Some of the entries so far, bar-delimited:
row | Sequence | PBM E-score
15 | AGCAGAAA | 0.152
17 | AGCGCATG | 0.0393
23 | CGGCATCA | -0.109
5 | ACCGCTAC | -0.181
4 | ATTATCCG | 0.166

# Nothing new here: entries from further up.
row,Sequence,PBM E-score
12,ATTGCGTA,0.251
13,AAGTGGCC,-0.137
14,ACAGCTTA,0.159

# Reference: the supplement of paper PMC3334620
